PubChem BioAssay AID1224826 – NIAID, 2016

Aim: 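Regulators of Tlr4 signalling leading to Tnf-alpha expression in macrophages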 (primary screen)
System: RAW264.7 G9 macrophages from mouse bearing reporters for p65 (GFP) and the Tnf promoter (mCherry)
Reagent: siRNA pool against mouse genes, 100 nM
Duration: 16 h of LPS stimulation, after 2 days of siRNA transfection
Conditions: bacterial lipopolysaccharide (Salmonella minnesota R595), 10 ng/ml
Measurement: 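Nuclear mCherry signal of the Tnf promoter reporter measured by imaging after background removal, scaled to each plate median and turned into robust z-scores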
Direction: Tnf reporter robust z-score: higher = stronger Tnf promoter reporter signal after LPS; Tnf reporter intensity: higher = stronger Tnf promoter reporter signal
Call rule: 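a well counts as active at a score of -1.3 or below (Tlr4 knock-down control median) or above 3 (raised signal); controls and wells holding fewer than 50 cells are excluded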
Calls: active = Tnf reporter clearly lowered or raised; inactive = no clear change in Tnf reporter
The deposit covers about 17,000 reagents; shown is an unselected part. In the full data, about 1,110 (6.6%) got an active call. 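Active means lowered or raised reporter signal; replicate intensities are raw and not normalised per plate.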 A number with no mark means an inactive call. Reagent sequences are not shown.

no.	Target gene	Tnf reporter robust z-score	fewer than 50 cells in well	Tnf reporter intensity, replicate 1	Tnf reporter intensity, replicate 2
1	Arid5a (GeneID 214855)	-0.14	enough cells in well	198	124
2	Vpreb3 (GeneID 22364)	-0.79	enough cells in well	143	200
3	Ube2v2 (GeneID 70620)	0.85	enough cells in well	277	317
4	Mertk (GeneID 17289)	2.86	enough cells in well	425	279
5	Prss1 (GeneID 114228)	0.95	enough cells in well	315	289
6	Or52h7 (GeneID 259050)	4.45 (active)	enough cells in well	242	146
7	Rhbg (GeneID 58176)		fewer than 50 cells per well; well left out of calls	120	98.1
8	Lysmd2 (GeneID 70082)		fewer than 50 cells per well; well left out of calls	191	36.3
9	Gm57858 (GeneID 241943)	0.46	enough cells in well	115	211
10	Corin (GeneID 53419)	1	enough cells in well	265	216
11	Tns4 (GeneID 217169)	-1.53 (active)	enough cells in well	98.2	79.6
12	Evx1 (GeneID 14028)	-0.04	enough cells in well	217	236
13	Trit1 (GeneID 66966)	0.09	enough cells in well	99.1	111
14	D030056L22Rik (GeneID 225995)	-0.24	enough cells in well	173	158
15	Rab13 (GeneID 68328)	-0.09	enough cells in well	292	204
16	Cst5 (GeneID 58214)	0.84	enough cells in well	283	178
17	Psma7 (GeneID 26444)		fewer than 50 cells per well; well left out of calls	102	278
18	Timp4 (GeneID 110595)	0.59	enough cells in well	228	193
19	Ctxn1 (GeneID 330695)	-1.82 (active)	enough cells in well	89.1	63.5
20	Nr0b1 (GeneID 11614)	0.52	enough cells in well	315	189
21	Cbln1 (GeneID 12404)	-0.36	enough cells in well	122	186
22	Snx24 (GeneID 69226)	-0.73	enough cells in well	79.1	68.3
23	Tff3 (GeneID 21786)	-0.64	enough cells in well	86.7	77.7
24	Dgkk (GeneID 331374)	0	enough cells in well	122	147
25	Thap12 (GeneID 72981)	-0.24	enough cells in well	210	190
26	Gng13 (GeneID 64337)	-0.96	enough cells in well	120	142
27	Ank2 (GeneID 109676)	0.02	enough cells in well	248	150
28	Tiprl (GeneID 226591)	1.99	enough cells in well	335	149
29	Slc6a3 (GeneID 13162)	-0.06	enough cells in well	269	105
30	Selenbp2 (GeneID 20342)	0.04	enough cells in well	318	188
31	Pitpnc1 (GeneID 71795)	-0.45	enough cells in well	212	68.3
32	Tmem106b (GeneID 71900)		fewer than 50 cells per well; well left out of calls	82.1	14.2
33	C130050O18Rik (GeneID 319772)	-0.79	enough cells in well	68.8	118
34	Stard13 (GeneID 243362)	1	enough cells in well	187	84.3
35	Cln8 (GeneID 26889)	-0.41	enough cells in well	221	171
36	Rab2a (GeneID 59021)	-0.37	enough cells in well	285	169
37	Dhps (GeneID 330817)	-0.62	enough cells in well	192	93.2
38	Cimap2 (GeneID 242602)	0.14	enough cells in well	206	148
39	Prxl2a (GeneID 70564)	0.72	enough cells in well	218	184
40	Kif11 (GeneID 16551)	-1.23	enough cells in well	140	88.3
41	Raet1c (GeneID 19370)	0.9	enough cells in well	187	150
42	Tm7sf3 (GeneID 67623)	-0.34	enough cells in well	288	64.6
43	Rgl1 (GeneID 19731)		fewer than 50 cells per well; well left out of calls	88	77.3
44	Akt3 (GeneID 23797)		fewer than 50 cells per well; well left out of calls	159	115
45	Rab35 (GeneID 77407)	-0.12	enough cells in well	137	168
46	Slc27a1 (GeneID 26457)	0.19	enough cells in well	111	104
47	Cmtr2 (GeneID 234728)	0.56	enough cells in well	254	236
48	Pja2 (GeneID 224938)	2.78	enough cells in well	306	196
49	Inpp5e (GeneID 64436)	0.95	enough cells in well	261	137
50	Pls3 (GeneID 102866)	-2.12 (active)	enough cells in well	42.6	31.5
51	Cdc34 (GeneID 216150)	-0.52	enough cells in well	228	148
52	Supt16 (GeneID 114741)	1.23	enough cells in well	163	121
53	Lynx1 (GeneID 23936)	0.95	enough cells in well	184	250
54	Nagk (GeneID 56174)	0.87	enough cells in well	201	258
55	Cpq (GeneID 54381)	-1.68 (active)	enough cells in well	70.8	50.9
56	Sesn3 (GeneID 75747)		fewer than 50 cells per well; well left out of calls	0	53.5
57	Slc12a6 (GeneID 107723)	0.11	enough cells in well	213	157
58	Ap1m2 (GeneID 11768)	-1.08	enough cells in well	141	109
59	Or4a73 (GeneID 258788)	1.48	enough cells in well	304	157
60	Olah (GeneID 99035)	0.53	enough cells in well	242	179
61	Kdm4a (GeneID 230674)	-0.13	enough cells in well	216	103
62	Fastkd3 (GeneID 69577)		fewer than 50 cells per well; well left out of calls	187	85.9
63	Peli3 (GeneID 240518)	0.09	enough cells in well	189	145
64	Cenpx (GeneID 20892)	-0.94	enough cells in well	75.3	54.7
65	Cth (GeneID 107869)	0.73	enough cells in well	252	293
66	Ptrh1 (GeneID 329384)	4.3 (active)	enough cells in well	370	98.6
67	Caap1 (GeneID 67770)	-0.61	enough cells in well	135	122
68	Sox10 (GeneID 20665)	-0.72	enough cells in well	185	185
69	Nprl3 (GeneID 17168)	-0.35	enough cells in well	200	102
70	Poglut2 (GeneID 72050)	1.01	enough cells in well	267	170
71	Mmp9 (GeneID 17395)	1.49	enough cells in well	356	342
72	Abhd10 (GeneID 213012)	-1.25	enough cells in well	142	67.2
73	Rrm2 (GeneID 20135)	-1.48 (active)	enough cells in well	129	94.1
74	Prr3 (GeneID 75210)	0.36	enough cells in well	172	118
75	Rnf126 (GeneID 70294)	-1.61 (active)	enough cells in well	65.4	51.5

Entries above whose gene name begins with L or l:
Target gene	Tnf reporter robust z-score	fewer than 50 cells in well	Tnf reporter intensity, replicate 1	Tnf reporter intensity, replicate 2
Lysmd2 (GeneID 70082)		fewer than 50 cells per well; well left out of calls	191	36.3
Lynx1 (GeneID 23936)	0.95	enough cells in well	184	250
